PMC11869522, “Competitive displacement of lipoprotein lipase from heparan sulfate is orchestrated by a disordered acidic cluster in GPIHBP1” (Journal of Lipid Research, 2025)
No constants are given. Whether binding was seen depends on the method and setting. Some entries that bind do so weakly or less than the wild type.

T1: Human LPL (lipoprotein lipase) (human, UniProt P06858 28-475, R324A)
T1 sequence (looked up): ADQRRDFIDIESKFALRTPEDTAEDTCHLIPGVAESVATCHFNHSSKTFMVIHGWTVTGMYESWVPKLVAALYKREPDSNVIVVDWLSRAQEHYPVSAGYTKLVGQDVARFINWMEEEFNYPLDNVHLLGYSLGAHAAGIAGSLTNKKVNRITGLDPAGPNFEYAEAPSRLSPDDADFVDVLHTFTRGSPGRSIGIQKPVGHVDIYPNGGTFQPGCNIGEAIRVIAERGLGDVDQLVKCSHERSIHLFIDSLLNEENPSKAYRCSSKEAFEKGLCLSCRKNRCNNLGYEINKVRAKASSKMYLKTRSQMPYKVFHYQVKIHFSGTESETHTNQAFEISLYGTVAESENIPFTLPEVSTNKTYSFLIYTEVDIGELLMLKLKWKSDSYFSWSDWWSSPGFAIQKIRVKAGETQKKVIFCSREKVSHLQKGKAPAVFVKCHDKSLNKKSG

T2: Mouse LPL (mouse) (UniProt P11152)
T2 sequence: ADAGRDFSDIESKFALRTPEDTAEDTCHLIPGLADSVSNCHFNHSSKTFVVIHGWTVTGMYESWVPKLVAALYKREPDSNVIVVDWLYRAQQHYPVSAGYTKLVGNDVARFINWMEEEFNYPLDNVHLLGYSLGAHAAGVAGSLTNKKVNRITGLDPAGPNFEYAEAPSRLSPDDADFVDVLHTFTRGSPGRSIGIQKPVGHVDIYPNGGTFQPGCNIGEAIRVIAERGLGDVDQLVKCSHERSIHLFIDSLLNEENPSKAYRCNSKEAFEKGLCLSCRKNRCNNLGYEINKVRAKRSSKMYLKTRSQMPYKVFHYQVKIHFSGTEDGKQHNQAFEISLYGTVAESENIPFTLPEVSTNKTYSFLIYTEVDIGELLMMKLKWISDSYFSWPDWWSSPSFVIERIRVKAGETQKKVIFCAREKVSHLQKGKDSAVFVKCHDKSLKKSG


Legend:
[1] = biological target: T1, Human LPL (lipoprotein lipase); assay: SPR; 12.5 nM hLPL captured on a high density of biotinylated sulfated heparin dp4 fragments on a streptavidin-coated CM5 chip; GPIHBP1 variants injected in twofold dilutions (1.25–200 nM) for 250 s at 20 ul/min; 10 mM Hepes pH 7.4, 150 mM NaCl, 4 mM CaCl2, 10% glycerol, 0.05% P20, 0.2 mg/ml BSA; both purified
[2] = biological target: T1, Human LPL (lipoprotein lipase); assay: native gel or EMSA; native PAGE of purified GPIHBP1 charge variants with hLPL, bLPL or mLPL (supplemental Fig. S1); both purified
[3] = biological target: T2, Mouse LPL (mouse); assay: as above
[4] = biological target: T1, Human LPL (lipoprotein lipase); assay: cross-linking; zero-length EDC crosslinking: GPIHBP1 carboxylates preactivated with EDC, then hLPL added (21 uM GPIHBP1, 4 uM hLPL, 1 mM EDC), 10 mM MES, 150 mM NaCl, pH 5.0, 22°C, 2 h or 4 h; SDS-PAGE bands digested with trypsin, crosslinks identified by LC-MS/MS; both purified

binding [1] | binding [2] | binding [3] | binding [4] | Binder
binds | – | – | – | GPIHBP1^34–131 (LU domain only, lacking the acidic tail) (domain or fragment, UniProt Q8IV16 54-151) LPGGGSRVLLRCYTCKSLPRDERCNLTQNCSHGQTCTTLIAHGNTESGLLTTHSTWCTDSCQPITKTVEGTQVTMTCCQSSLCNVPPWQSSRVQDPTG
binds | – | – | – | GPIHBP1^1–131/R38G (domain or fragment, human, UniProt Q8IV16 21-151, looked up, sulfated Tyr18; one bi-antennary N-linked glycosylation) QTQQEEEEEDEDHGPDDYDEEDEDEVEEEETNRLPGGGSRVLLRCYTCKSLPRDERCNLTQNCSHGQTCTTLIAHGNTESGLLTTHSTWCTDSCQPITKTVEGTQVTMTCCQSSLCNVPPWQSSRVQDPTG
binds | binds | binds | binds weakly | GPIHBP1^Cluster2-neutral (domain or fragment, human, UniProt Q8IV16 21-151, looked up, Tyr18 sulfation absent; one bi-antennary N-linked glycosylation, Construct from VectorBuilder Inc; source: Drosophila S2-cells, secreted, purified, D3 tag removed; not shown: uPAR domain III, N-terminal, cleaved) QTQQEEEEEDEDHGPDDYNQQNQNQVQQQQTNRLPGGGSRVLLRCYTCKSLPRDERCNLTQNCSHGQTCTTLIAHGNTESGLLTTHSTWCTDSCQPITKTVEGTQVTMTCCQSSLCNVPPWQSSRVQDPTG
